Data as given in PubChem BioAssay AID1259424 (University of Nebraska Medical Center, 2018).
In all, the deposit lists about 14,000 reagents; shown is an unselected part. 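Higher correlation or smaller distance means closer resemblance to KSR1 loss; control wells, including KSR1 knockdowns, recur on many plates.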 A reagent listed more than once was tested more than once; the source does not tell the runs apart. Not stated in the record: the time to read-out.

Aim: 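Rank knockdowns across the genome by resemblance to the KSR1 depletion profile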 (primary screen)
System: human HCT116 colon cancer cells
Reagent: siRNA pool against human genes, 50 nM
Detection: 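Six signature mRNAs by branched-DNA multiplex assay, scaled to two housekeeping genes and non-targeting median, log2; matched to mean KSR1 knockdown profile by Pearson correlation and euclidean distance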
Scale: mean correlation with KSR1 profile and KSR1 correlation: higher = expression change more like KSR1 knockdown; mean distance from KSR1 profile: higher = expression change less like KSR1 knockdown

target	mean correlation with KSR1 profile	mean distance from KSR1 profile	KSR1 correlation, replicate 1	KSR1 correlation, replicate 2	KSR1 correlation, replicate 3
RAD51D	0.0477	2.84	-0.0581	0.133	0.0168
GRIN2B	0.384	1.62	0.512	0.344	0.18
AIP	-0.473	2.09	-0.555	-0.288	-0.245
NFRKB	-0.0491	3.19	-0.212	-0.115	-0.124
BMS1	-0.226	2.53	-0.139	-0.308	-0.0901
RTL6	0.963	1.56	0.907	0.952	0.95
STX18	-0.154	2.43	-0.235	-0.226	-0.00367
FUT4	-0.218	2.77	-0.164	-0.248	-0.17
NBEAL1	0.365	2.1	0.32	0.0558	0.344
GSTT4	0.00347	2.94	-0.0555	0.0371	-0.0962
ARX	0.567	1.63	0.82	0.652	0.42
ATG16L1	0.124	2.79	0.141	-0.125	0.307
YBX2	-0.118	2.47	-0.0849	-0.12	0.145
APOBR	-0.405	2.8	-0.245	-0.38	-0.592
PDLIM3	-0.781	1.68	-0.684	-0.687	-0.841
PDLIM3	0.0201	2.01	-0.0823	0.277	-0.0822
HS3ST4	-0.595	3.38	-0.432	-0.809	-0.306
MICALL2	0.343	1.95	0.33	0.498	0.178
CELA2A	0.568	1.92	0.266	0.484	0.626
ZFHX3	0.259	1.93	0.0609	0.411	0.389
SNCB	-0.0143	1.54	0.183	-0.0843	-0.151
ANKRD20A1	0.777	1.03	0.804	0.704	0.656
SNAI1	0.199	2.2	0.156	0.35	0.105
ITGA1	-0.0548	1.59	-0.417	0.0318	0.0334
HSPG2	0.349	1.59	0.483	0.241	0.298
ADCY8	-0.312	1.7	-0.164	-0.479	-0.298
EIF2B1	0.122	1.84	0.155	0.861	-0.363
VIPR1	0.686	1.18	0.674	0.78	0.709
DENND4A	-0.0328	2.16	-0.0411	-0.0488	0.00929
KCNK10	-0.252	3.09	-0.205	-0.39	-0.0298
RPS18	-0.439	2.26	-0.245	-0.548	-0.455
P2RX4	-0.035	0.947	0.392	0.544	-0.745
FSD1	0.504	2.16	0.483	0.484	0.6
CDKN2C	0.519	1.92	0.485	0.544	0.317
CAT	0.389	0.918	0.386	0.19	0.556
RANBP3	0.22	1.25	-0.316	-0.256	0.648
STMN1	0.26	2.53	0.056	0.107	0.365
PREP	-0.739	1.59	-0.512	-0.774	-0.595
CLMN	0.0165	1.69	-0.234	0.724	-0.151
UTP23	0.556	1.79	0.303	0.438	0.697
UTP6	-0.344	1.03	-0.778	0.145	-0.485
PTRH2	0.113	2.83	0.375	-0.0695	0.109
CACNG6	0.107	2.95	0.343	0.227	0.18
MEP1A	-0.369	1.26	-0.247	-0.346	-0.645
KLC3	-0.612	3.18	-0.531	-0.66	-0.638
ACTR1A	-0.141	1.6	-0.545	-0.139	0.555
NAA10	-0.393	3.54	-0.478	-0.318	-0.458
FBXO32	0.423	1.61	0.414	0.339	0.242
KRT76	-0.0641	2.66	0.043	-0.228	-0.0114
LPAR6	0.327	3.91	0.348	0.572	0.378
OCLM (retired record)	0.0746	0.755	0.441	0.0484	-0.545
PLCXD1	-0.343	1.63	-0.132	-0.448	-0.272
MED9	-0.0495	1.92	0.021	-0.135	-0.12
NTPCR	0.38	2.13	0.236	0.215	0.558
HAND2	0.0501	1.66	0.0118	0.124	-0.0457
HSD17B14	-0.431	3.94	-0.397	-0.347	-0.376
DCPH1	0.7	1.41	0.808	0.647	0.691
PHF11	-0.367	2.43	-0.408	-0.254	-0.311
GTF2A1	0.509	1.19	0.397	0.469	0.367
ZNF33B	0.342	1.42	0.414	0.174	0.462
HSPE1	0.43	2.36	0.351	-0.663	0.561
HSPA6	0.0988	1.99	-0.0962	0.0928	0.408
HHLA2	-0.396	1.44	-0.257	-0.42	-0.253

A stretch from the list above, as a working copy:
target	mean correlation with KSR1 profile	mean distance from KSR1 profile	KSR1 correlation, replicate 1	KSR1 correlation, replicate 2	KSR1 correlation, replicate 3
KCNK10	-0.252	3.09	-0.205	-0.39	-0.0298
RPS18	-0.439	2.26	-0.245	-0.548	-0.455
P2RX4	-0.035	0.947	0.392	0.544	-0.745
FSD1	0.504	2.16	0.483	0.484	0.6
